At least one compound was matched to its structure with a doubt left.
System: Eμ-Myc-GAPDHlow cells
Experiment: Metabolic status (oxygen consumption, OxPhos and glycolytic ATP production) of Eμ-Myc-GAPDHlow lymphoma cells treated with Rapamycin
Type: cell-based, mouse
[1] = Eμ-Myc-GAPDHlow cells, inhibition of mTORC1 with rapamycin (10 nM and 20 nM, 24 hours)

Compound: CO[C@H]1C[C@@H]2CC[C@@H](C)[C@@](O)(O2)C(=O)C(=O)N2CCCC[C@H]2C(=O)O[C@H]([C@H](C)C[C@@H]2CC[C@@H](O)[C@H](OC)C2)CC(=O)[C@H](C)/C=C(\C)[C@@H](O)[C@@H](OC)C(=O)[C@H](C)C[C@H](C)/C=C/C=C/C=C/1C [rapamycin]
- baseline oxygen consumption rate [1]: reduces
- maximal respiration [1]: reduces
- mitochondrial ATP production [1]: reduces
- metabolic status (OxPhos vs glycolysis) (two independent Eμ-Myc-GAPDHlow clones): induces a metabolic shift from OxPhos to glycolysis

From patent US20190292603A1, “METHOD FOR PREDICTING THE RESPONSIVENESS OF A PATIENT TO A TREATMENT WITH mTOR INHIBITORS” (INSTITUT NATIONAL DE LA SANTE ET DE LA RECHERCHE MEDICALE, priority 2018, published 2019)
